Assay: Cure and colour measurements of coatings in the presence of anti-yellowing additives
Conditions: 50 μm coating, LED 395 nm; for Curing assessment: 5 W/cm2, 10 passes; for L* / a* / b*: 10 passes, colour immediately after cure
[1] = additive 0.1% wt in control hybrid formulation
[2] = additive 0.5% wt in control hybrid formulation
[3] = additive 1.0% wt in control hybrid formulation

Cc1cc(C(C)(C)C)c(O)c(C(C)(C)C)c1 [BHT]
Curing assessment [1]: Fully cured | L* [1]: 78.13 | a* [1]: 12.39 | b* [1]: 15.91 | Curing assessment [2]: Fully cured | L* [2]: 80.98 | a* [2]: 8.86 | b* [2]: 13.03 | Curing assessment [3]: Fully cured | L* [3]: 82.48 | a* [3]: 6.77 | b* [3]: 12.00

O=C(O)CSc1ccccc1 [(Phenylthio)acetic acid]
Curing assessment [1]: Fully cured | L* [1]: 83.76 | a* [1]: 7.49 | b* [1]: 13.93 | Curing assessment [2]: Fully cured | L* [2]: 88.46 | a* [2]: 1.78 | b* [2]: 12.28

CCOC(=O)c1ccc(N(C)C)cc1 [Speedcure EDB]
Curing assessment [1]: Fully cured | L* [1]: 78.65 | a* [1]: 10.84 | b* [1]: 16.55

CC1(C)CCCC(C)(C)N1[O] [TEMPO]
Curing assessment [1]: Partly cured | L* [1]: 80.39 | a* [1]: 14.05 | b* [1]: 17.28

Source: patent US20260217983A1, “SULFONIUM SALT PHOTOINITIATORS AND METHODS OF LED CURING A COMPOSITION WITH SAID SULFONIUM SALT PHOTOINITIATORS” (ARKEMA FRANCE, priority 2022, published 2026)
